Source: PubChem BioAssay AID743121 (NCATS, 2013)
The deposit covers about 26,000 reagents; this is a random part of them. 167 of them (0.63%) count as active. 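Calls are per gene from RSA p-values that are not deposited; an individual active-marked siRNA can sensitise only weakly.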 Reagents against one gene are numbered here. Not all columns of the deposit are shown.

- Test: 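Genes whose silencing strengthens cell killing by camptothecin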 (primary screen)
- Cell system: MDA-MB-231 cells, a human breast cancer line
- Knock-down reagent: single siRNA against human genes, 20 nM siRNA (0.8 pmol per well)
- Timing: 120 h (drug added 48 h after transfection, read 72 h later)
- Treatment: camptothecin 20 nM (about EC30) for 72 h; vehicle 0.1% DMSO in parallel plates
- Measurement: 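Cell viability by ATP luminescence (CellTiter-Glo) as % of non-targeting siRNA wells, and the log2 ratio of viability without drug over viability with camptothecin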
- Scale: log2 vehicle/camptothecin viability: higher = stronger sensitisation to camptothecin
- Rule for the call: 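Active genes have an RSA gene-level p-value below 0.001, computed from the ratios of their separate siRNAs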

gene knocked down,siRNA no.,log2 vehicle/camptothecin viability,outcome
EID2 (GeneID 163126),1,-0.268,inactive
EID2 (GeneID 163126),2,-0.218,inactive
EID2 (GeneID 163126),3,-0.215,inactive
GADD45B (GeneID 4616),1,-0.126,inactive
GADD45B (GeneID 4616),2,-0.0743,inactive
GADD45B (GeneID 4616),3,0.284,inactive
GADD45B (GeneID 4616),4,0.174,inactive
IRAK1BP1 (GeneID 134728),1,-0.032,inactive
IRAK1BP1 (GeneID 134728),2,-0.334,inactive
IRAK1BP1 (GeneID 134728),3,-0.279,inactive
IRAK1BP1 (GeneID 134728),4,-0.416,inactive
PTPN7 (GeneID 5778),1,-0.0991,inactive
PTPN7 (GeneID 5778),2,-0.358,inactive
PTPN7 (GeneID 5778),3,-0.293,inactive
PTPN7 (GeneID 5778),4,-0.114,inactive
DRD4 (GeneID 1815),1,-0.256,inactive
DRD4 (GeneID 1815),2,-0.252,inactive
DRD4 (GeneID 1815),3,-0.655,inactive
DRD4 (GeneID 1815),4,-0.196,inactive
TXNL1 (GeneID 9352),1,-0.107,inactive
TXNL1 (GeneID 9352),2,-0.164,inactive
TXNL1 (GeneID 9352),3,-0.355,inactive
TXNL1 (GeneID 9352),4,-0.307,inactive
CTSB (GeneID 1508),1,-0.152,inactive
CTSB (GeneID 1508),2,-0.445,inactive
CTSB (GeneID 1508),3,-0.126,inactive
CTSB (GeneID 1508),4,-0.832,inactive
GREB1L (GeneID 80000),1,-0.484,inactive
GREB1L (GeneID 80000),2,0.0976,inactive
GREB1L (GeneID 80000),3,0.0968,inactive
GREB1L (GeneID 80000),4,-0.0715,inactive
CTNND2 (GeneID 1501),1,-0.123,inactive
CTNND2 (GeneID 1501),2,0.467,inactive
CTNND2 (GeneID 1501),3,-0.165,inactive
HES6 (GeneID 55502),1,0.0203,inactive
HES6 (GeneID 55502),2,0.00213,inactive
HES6 (GeneID 55502),3,0.0357,inactive
HES6 (GeneID 55502),4,-0.475,inactive
ENDOV (GeneID 284131),1,-0.167,inactive
ENDOV (GeneID 284131),2,0.00173,inactive
ENDOV (GeneID 284131),3,1,inactive
ENDOV (GeneID 284131),4,-0.166,inactive
TNFAIP6 (GeneID 7130),1,-0.263,inactive
TNFAIP6 (GeneID 7130),2,-0.325,inactive
TNFAIP6 (GeneID 7130),3,-0.491,inactive
ENDOG (GeneID 2021),1,-0.124,inactive
ENDOG (GeneID 2021),2,0.484,inactive
ENDOG (GeneID 2021),3,-0.434,inactive
ENDOG (GeneID 2021),4,0.828,inactive

Targets above whose target name starts with H or h (4):
gene knocked down,siRNA no.,log2 vehicle/camptothecin viability,outcome
HES6 (GeneID 55502),1,0.0203,inactive
HES6 (GeneID 55502),2,0.00213,inactive
HES6 (GeneID 55502),3,0.0357,inactive
HES6 (GeneID 55502),4,-0.475,inactive

The listing continues.
gene knocked down,siRNA no.,log2 vehicle/camptothecin viability,outcome
ANAPC4 (GeneID 29945),1,-0.986,inactive
ANAPC4 (GeneID 29945),2,-0.329,inactive
ANAPC4 (GeneID 29945),3,-0.103,inactive
EXOG (GeneID 9941),1,0.267,inactive
EXOG (GeneID 9941),2,-0.27,inactive
EXOG (GeneID 9941),3,0.365,inactive
GABRB1 (GeneID 2560),1,-0.358,inactive
GABRB1 (GeneID 2560),2,-0.379,inactive
GABRB1 (GeneID 2560),3,-0.0777,inactive
AGTRAP (GeneID 57085),1,-0.528,inactive
AGTRAP (GeneID 57085),2,0.112,inactive
AGTRAP (GeneID 57085),3,-0.346,inactive
AGTRAP (GeneID 57085),4,-0.135,inactive
RAB28 (GeneID 9364),1,-0.183,inactive
RAB28 (GeneID 9364),2,-0.523,inactive
RAB28 (GeneID 9364),3,-1.08,inactive
RAB28 (GeneID 9364),4,0.297,inactive
NFKBIA (GeneID 4792),1,-0.156,inactive
NFKBIA (GeneID 4792),2,-0.403,inactive
NFKBIA (GeneID 4792),3,-0.177,inactive
NFKBIA (GeneID 4792),4,-0.337,inactive
HSD11B1 (GeneID 3290),1,-0.201,inactive
HSD11B1 (GeneID 3290),2,-0.0818,inactive
HSD11B1 (GeneID 3290),3,-0.228,inactive
HSD11B1 (GeneID 3290),4,-0.0323,inactive
CHKB (GeneID 1120),1,-0.00399,inactive
CHKB (GeneID 1120),2,0.28,inactive
CHKB (GeneID 1120),3,-0.239,inactive
CHKB (GeneID 1120),4,-0.207,inactive
CHKB (GeneID 1120),5,-0.125,inactive
CHKB (GeneID 1120),6,-0.111,inactive
CHKB (GeneID 1120),7,-0.0198,inactive
CHKB (GeneID 1120),8,0.515,inactive
IL17B (GeneID 27190),1,-0.421,inactive
IL17B (GeneID 27190),2,-0.461,inactive
IL17B (GeneID 27190),3,-0.237,inactive
IL17B (GeneID 27190),4,0.109,inactive
HAVCR1 (GeneID 26762),1,-0.0137,inactive
HAVCR1 (GeneID 26762),2,0.212,inactive
HAVCR1 (GeneID 26762),3,-0.6,inactive
HAVCR1 (GeneID 26762),4,0.898,inactive
